Data as given in PubChem BioAssay AID1259425 (University of Nebraska Medical Center, 2018).
This is one part, drawn at random, of about 14,000 deposited reagents. Further read-outs or replicates are left out here. Not given: the time to read-out.

Assay: 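Compare each knockdown with KSR1 silencing using changes in marker transcripts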 (primary screen)
Cell system: HCT116 human colon cancer cells
Knock-down reagent: siRNA pool against human genes, 50 nM siRNA
Measured: 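After 50 nM siRNA pool, branched-DNA assay measures six marker transcripts per well, minus blank, normalised to the geometric mean of two housekeeping transcripts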
Scale: BNIP3L mRNA: higher = more BNIP3L transcript after knockdown

Depletion of CASS4 came out at: BNIP3L mRNA, set 1 = 0.145.
TMEM14C showed BNIP3L mRNA, set 1 = 0.108.
Silencing of SHISA5 resulted in: BNIP3L mRNA, set 1 = 0.259.
FAM120B gave BNIP3L mRNA, set 1 = 0.201.
Knock-down of RPAIN came out at: BNIP3L mRNA, set 1 = 0.209.
After knock-down of LMO1, the screen gave BNIP3L mRNA, set 1 = 0.115.
For RPH3A the deposit lists BNIP3L mRNA, set 1 = 0.154.
Against PCM1, the entry reads BNIP3L mRNA, set 1 = 0.0551.
With knock-down of CASC3 the results were BNIP3L mRNA, set 1 = 0.17.
Silencing of BCKDK gave: BNIP3L mRNA, set 1 = 0.104.
Against REV3L the deposit lists BNIP3L mRNA, set 1 = 0.076.
With knock-down of RIDA the results were BNIP3L mRNA, set 1 = 0.143.
After knock-down of PCID2, the screen gave BNIP3L mRNA, set 1 = 0.0521.
For PPP2R5A the deposit lists BNIP3L mRNA, set 1 = 0.043.
E2F2 scored BNIP3L mRNA, set 1 = 0.0886.
GNAS scored BNIP3L mRNA, set 1 = 0.161.
Against CCL16, the values are BNIP3L mRNA, set 1 = 0.0931.
Against NME6, the values are BNIP3L mRNA, set 1 = 0.0312.
With knock-down of SLC12A2 the results were BNIP3L mRNA, set 1 = 0.0405.
After knock-down of LONRF3, the record shows BNIP3L mRNA, set 1 = 0.176.
With knock-down of COX6C the results were BNIP3L mRNA, set 1 = 0.0751.
After knock-down of PNN, the screen gave BNIP3L mRNA, set 1 = 0.0873.
For LRCH4, the entry reads BNIP3L mRNA, set 1 = 0.128.
ICAM3 gave BNIP3L mRNA, set 1 = 0.098.
Depletion of RHBDD3 resulted in: BNIP3L mRNA, set 1 = 0.214.
With knock-down of PADI2, the screen gave BNIP3L mRNA, set 1 = 0.21.
Knock-down of RIMKLB came out at: BNIP3L mRNA, set 1 = 0.113.
PPM1F scored BNIP3L mRNA, set 1 = 0.104.
